Source: patent publication US9862746B2, “Compositions and methods relating to hindering DOT1L recruitment by MLL-fusion proteins” (The Regents of the University of Michigan, priority 2013, dated 2018)
At least one structure is not confirmed: it was looked up by name or label, or the drawing left a doubt. Where a SMILES comes first, the peptide text is derived from it. [ ]: non-standard residue; d: D form. The star is where a group is joined. 5FAM = O=C1OC2(c3ccc(O)cc3Oc3cc(O)ccc32)c2ccc(C(=O)*)cc21; βAla = NCCC(=O)O

Tests used:
MBP-ENL = target: T1, MBP-ENL (Homo sapiens, UniProt Q03111); experiment: FP saturation binding of Flu-DOT1L 10 mer to ENL; settings: fluorescent labeled peptide
T1 construct: MBP-ENL (489-559) was dialysed extensively; made in house; host or cells: Escherichia coli BL21 (DE3)
T1 sequence (Q03111 489-559): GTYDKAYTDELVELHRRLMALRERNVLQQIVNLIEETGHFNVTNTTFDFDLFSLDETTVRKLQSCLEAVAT

GB1-AF9 = target: T2, GB1-AF9 (Homo sapiens, UniProt P42568); experiment: FP saturation binding of Flu-DOT1L 10 mer to AF9; settings: fluorescent labeled peptide
T2 construct: the recombinant GB1-AF9 protein (residues 497-568); made in house; host or cells: Escherichia coli BL21 (DE3)
T2 sequence (P42568 497-568): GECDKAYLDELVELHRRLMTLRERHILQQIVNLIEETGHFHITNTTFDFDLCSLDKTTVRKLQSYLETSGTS

[1] = target: T3, GB1-AF9 protein (residues 497-568) (Homo sapiens, UniProt P42568); experiment: Optimized FP saturation experiment with labeled DOT1L-10 mer peptides; assay type: binding; settings: recombinant GB1-AF9
T3 construct: the recombinant GB1-AF9 protein (residues 497-568); made in house; host or cells: Escherichia coli BL21 (DE3)
T3 sequence (P42568 497-568): T2 sequence (P42568 497-568)

Which results are given for `CC[C@H](C)[C@H](NC(=O)[C@@H]1CCCN1C(=O)[C@H](CC(C)C)NC(=O)CCNC(=O)CCNC(=O)[C@H](CCCCNC(=O)c1ccc2c(c1)C(=O)OC21c2ccc(O)cc2Oc2cc(O)ccc21)NC(C)=O)C(=O)N[C@@H](CO)C(=O)N[C@H](C(=O)N1CCC[C@H]1C(=O)N[C@@H](CC(C)C)C(=O)N[C@@H](CO)C(=O)N[C@H](C(=O)N[C@H](C(N)=O)C(C)C)[C@@H](C)O)[C@@H](C)CC` [fluorescent labeled DOT1L 10-mer peptide] (Ac-K(5FAM)[βAla][βAla]LPISIPLSTV-NH2)?
Kd (MBP-ENL): 495 nM; Kd (GB1-AF9): 65 nM

For `CC[C@H](C)[C@H](NC(=O)[C@@H]1CCCN1C(=O)[C@H](CC(C)C)NC(=O)CCNC(=O)CCNC(=O)[C@H](CCCCNC(=O)c1ccc2c(c1)C(=O)OC21c2ccc(O)cc2Oc2cc(O)ccc21)NC(C)=O)C(=O)N[C@@H](CO)C(=O)N[C@H](C(=O)N1CCC[C@H]1C(=O)N[C@@H](CC(C)C)C(=O)N[C@@H](CO)C(=O)N[C@H](C(=O)N[C@H](C(N)=O)C(C)C)[C@@H](C)O)[C@@H](C)CC` [N-Flu-DOT1L] (Ac-K(5FAM)[βAla][βAla]LPISIPLSTV-NH2), which Kd [1] is on record?
Its Kd is 95 ± 2 nM.
